Laboratory results: PubChem BioAssay AID1224830 (NIAID, 2016)
Purpose: 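Regulators of TLR4 signalling towards TNF-alpha in macrophage-like cells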 (primary screen). System: human THP-1 monocytic leukaemia cells, TNF dual-luciferase reporter clone, PMA-differentiated to macrophage-like cells. Reagent: siRNA pool against human genes, 50 nM. Time to read-out: LPS for 4 h, given about 3 days after siRNA transfection. Conditions: bacterial LPS (TLR4 ligand), 10 ng/ml. Measured: 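Ratio of firefly to renilla light, scaled to the plate median and expressed as a robust z-score per replicate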. Scale: TNF reporter robust z-score: higher = stronger TNF reporter response to LPS. Active means: 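a well is active when its z-score exceeds 2.8 or falls below -1.5; control wells carry no call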.
The deposit covers about 18,000 reagents; shown is an unselected part. Over the whole deposit, about 2,900 (16%) are marked active. 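Calls are made per well; low scores hint the gene aids the LPS response, high scores that it dampens it.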 Repeated entries: four replicate wells of each siRNA pool.

gene	TNF reporter robust z-score	Outcome
ADAT2 (adenosine deaminase tRNA specific 2)	0.3	inactive
ADAT2 (adenosine deaminase tRNA specific 2)	0.27	inactive
ADAT2 (adenosine deaminase tRNA specific 2)	-0.11	inactive
ADAT2 (adenosine deaminase tRNA specific 2)	1.33	inactive
HS6ST2 (heparan sulfate 6-O-sulfotransferase 2)	-1.23	inactive
HS6ST2 (heparan sulfate 6-O-sulfotransferase 2)	-0.75	inactive
HS6ST2 (heparan sulfate 6-O-sulfotransferase 2)	-0.1	inactive
HS6ST2 (heparan sulfate 6-O-sulfotransferase 2)	-0.23	inactive
DNTTIP1 (deoxynucleotidyltransferase terminal interacting protein 1)	-0.89	inactive
DNTTIP1 (deoxynucleotidyltransferase terminal interacting protein 1)	-0.14	inactive
DNTTIP1 (deoxynucleotidyltransferase terminal interacting protein 1)	-0.88	inactive
DNTTIP1 (deoxynucleotidyltransferase terminal interacting protein 1)	-0.33	inactive
NUFIP2 (nuclear FMR1 interacting protein 2)	0.58	inactive
NUFIP2 (nuclear FMR1 interacting protein 2)	1.13	inactive
NUFIP2 (nuclear FMR1 interacting protein 2)	1.14	inactive
NUFIP2 (nuclear FMR1 interacting protein 2)	1.11	inactive
RARG (retinoic acid receptor gamma)	0.41	inactive
RARG (retinoic acid receptor gamma)	-0.79	inactive
RARG (retinoic acid receptor gamma)	-1.09	inactive
RARG (retinoic acid receptor gamma)	-0.68	inactive
B4GAT1 (beta-1,4-glucuronyltransferase 1)	1.83	inactive
B4GAT1 (beta-1,4-glucuronyltransferase 1)	-0.15	inactive
B4GAT1 (beta-1,4-glucuronyltransferase 1)	-0.34	inactive
B4GAT1 (beta-1,4-glucuronyltransferase 1)	1.33	inactive
DIXDC1 (DIX domain containing 1)	0.91	inactive
DIXDC1 (DIX domain containing 1)	0.4	inactive
DIXDC1 (DIX domain containing 1)	2.08	inactive
DIXDC1 (DIX domain containing 1)	0.6	inactive
VAT1L (vesicle amine transport 1 like)	2.03	inactive
VAT1L (vesicle amine transport 1 like)	0.19	inactive
VAT1L (vesicle amine transport 1 like)	0.56	inactive
VAT1L (vesicle amine transport 1 like)	1.46	inactive
IBA57 (iron-sulfur cluster assembly factor IBA57)	-1.57	active
IBA57 (iron-sulfur cluster assembly factor IBA57)	-0.78	inactive
IBA57 (iron-sulfur cluster assembly factor IBA57)	-1.25	inactive
IBA57 (iron-sulfur cluster assembly factor IBA57)	-0.11	inactive
SCAMP4	-0.73	inactive
SCAMP4	-0.69	inactive
SCAMP4	-1.14	inactive
SCAMP4	-0.95	inactive
ENKUR (enkurin, TRPC channel interacting protein)	0.45	inactive
ENKUR (enkurin, TRPC channel interacting protein)	0.24	inactive
ENKUR (enkurin, TRPC channel interacting protein)	0.15	inactive
ENKUR (enkurin, TRPC channel interacting protein)	0.6	inactive
ARC (activity regulated cytoskeleton associated protein)	-0.52	inactive
ARC (activity regulated cytoskeleton associated protein)	-0.32	inactive
ARC (activity regulated cytoskeleton associated protein)	-0.99	inactive
ARC (activity regulated cytoskeleton associated protein)	-0.54	inactive
SAMD14 (sterile alpha motif domain containing 14)	0.97	inactive
SAMD14 (sterile alpha motif domain containing 14)	1.67	inactive
SAMD14 (sterile alpha motif domain containing 14)	1.13	inactive
SAMD14 (sterile alpha motif domain containing 14)	1.1	inactive
ANKRD54 (ankyrin repeat domain 54)	-0.54	inactive
ANKRD54 (ankyrin repeat domain 54)	-0.79	inactive
ANKRD54 (ankyrin repeat domain 54)	-1.14	inactive
ANKRD54 (ankyrin repeat domain 54)	-1.04	inactive
XKR5 (XK related 5)	0.01	inactive
XKR5 (XK related 5)	0.56	inactive
XKR5 (XK related 5)	-0.73	inactive
XKR5 (XK related 5)	-0.51	inactive
CD80 (CD80 molecule)	0.25	inactive
CD80 (CD80 molecule)	1.99	inactive
CD80 (CD80 molecule)	-0.74	inactive
CD80 (CD80 molecule)	0.79	inactive
NT5E (5'-nucleotidase ecto)	-0.27	inactive
NT5E (5'-nucleotidase ecto)	-0.12	inactive
NT5E (5'-nucleotidase ecto)	-0.26	inactive
NT5E (5'-nucleotidase ecto)	0.85	inactive
SPANXA2 (SPANX family member A2)	-1.26	inactive
SPANXA2 (SPANX family member A2)	-1.15	inactive
SPANXA2 (SPANX family member A2)	-0.73	inactive
NPY1R (neuropeptide Y receptor Y1)	-0.07	inactive
NPY1R (neuropeptide Y receptor Y1)	-0.36	inactive
NPY1R (neuropeptide Y receptor Y1)	-0.94	inactive
NPY1R (neuropeptide Y receptor Y1)	-0.08	inactive
ECHDC1 (ethylmalonyl-CoA decarboxylase 1)	0.01	inactive
ECHDC1 (ethylmalonyl-CoA decarboxylase 1)	0.14	inactive
ECHDC1 (ethylmalonyl-CoA decarboxylase 1)	-0.7	inactive
SBDS (SBDS ribosome maturation factor)	1.7	inactive
SBDS (SBDS ribosome maturation factor)	1.79	inactive
SBDS (SBDS ribosome maturation factor)	1.1	inactive
SBDS (SBDS ribosome maturation factor)	2.16	inactive
USP9X (ubiquitin specific peptidase 9 X-linked)	-0.48	inactive
USP9X (ubiquitin specific peptidase 9 X-linked)	-0.37	inactive
USP9X (ubiquitin specific peptidase 9 X-linked)	-0.47	inactive
USP9X (ubiquitin specific peptidase 9 X-linked)	-0.04	inactive
CYSTM1 (cysteine rich transmembrane module containing 1)	-0.1	inactive
CYSTM1 (cysteine rich transmembrane module containing 1)	-0.36	inactive
CYSTM1 (cysteine rich transmembrane module containing 1)	-0.78	inactive
GTPBP8 (GTP binding protein 8)	0.2	inactive
GTPBP8 (GTP binding protein 8)	0.38	inactive
GTPBP8 (GTP binding protein 8)	0.1	inactive
GTPBP8 (GTP binding protein 8)	0.61	inactive
CPT1A (carnitine palmitoyltransferase 1A)	0.53	inactive
CPT1A (carnitine palmitoyltransferase 1A)	1.83	inactive
CPT1A (carnitine palmitoyltransferase 1A)	0.94	inactive
CPT1A (carnitine palmitoyltransferase 1A)	2.88	active
TTPAL (alpha tocopherol transfer protein like)	-1.38	inactive
TTPAL (alpha tocopherol transfer protein like)	-0.52	inactive
TTPAL (alpha tocopherol transfer protein like)	-0.73	inactive
TTPAL (alpha tocopherol transfer protein like)	0.48	inactive
MANSC1 (MANSC domain containing 1)	-0.94	inactive
MANSC1 (MANSC domain containing 1)	-1.01	inactive
MANSC1 (MANSC domain containing 1)	-0.68	inactive
MANSC1 (MANSC domain containing 1)	-0.49	inactive
CDCA4 (cell division cycle associated 4)	-0.36	inactive
CDCA4 (cell division cycle associated 4)	-0.23	inactive
CDCA4 (cell division cycle associated 4)	-0.12	inactive
CDCA4 (cell division cycle associated 4)	0.15	inactive
KIAA1755	1.1	inactive
KIAA1755	1.51	inactive
KIAA1755	0.52	inactive
KIAA1755	0.31	inactive

In a second layout: 10 of the entries above.
gene | TNF reporter robust z-score | Outcome
VAT1L (vesicle amine transport 1 like) | 0.19 | inactive
VAT1L (vesicle amine transport 1 like) | 0.56 | inactive
VAT1L (vesicle amine transport 1 like) | 1.46 | inactive
IBA57 (iron-sulfur cluster assembly factor IBA57) | -1.57 | active
IBA57 (iron-sulfur cluster assembly factor IBA57) | -0.78 | inactive
IBA57 (iron-sulfur cluster assembly factor IBA57) | -1.25 | inactive
IBA57 (iron-sulfur cluster assembly factor IBA57) | -0.11 | inactive
SCAMP4 | -0.73 | inactive
SCAMP4 | -0.69 | inactive
SCAMP4 | -1.14 | inactive
